Reference: PubChem BioAssay AID1259254 (NCATS, 2017)
Test: 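Finding genes that stop cells copying their DNA twice in one cycle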 (primary screen). Cells: human HCT116 colorectal cancer cells. Knock-down reagent: single siRNA against human genes. Duration: 3 days. Read-out: 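Nuclei stained with Hoechst and imaged; cell-cycle phase assigned by DNA content; G2 share scaled per plate, non-targeting siRNA 0%, GMNN siRNA 100%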. Direction: G2 robust z-score and G2 cells, % of GMNN control: higher = more G2 cells, more excess DNA replication. Active means: 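An siRNA counts as active if its G2 robust z-score lies at least 5 MADs above the screen median; here such calls match roughly 38% of GMNN control or more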.
Here is an unselected part of about 59,000 reagents. In the full data, about 1,550 (2.6%) were called active. 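G2 share is only a proxy for re-replication; each gene was hit by three separate siRNAs, and active genes were retested.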 A number with no mark means an inactive call. The numbers tell different reagents against one gene apart. Not all columns of the deposit are shown. Not given: the amount of reagent.

| gene | siRNA no. | G2 robust z-score | G2 cells, % of GMNN control |
| --- | --- | --- | --- |
| FAM86B2 | 1 | 0.35 | 5.43 |
| FAM86B2 | 2 | -0.207 | 1.51 |
| FAM86B2 | 3 | -0.103 | 2.25 |
| LINC02915 | 1 | -0.274 | 1.04 |
| LINC02915 | 2 | 0.558 | 6.89 |
| LINC02915 | 3 | -1.06 | -4.48 |
| XRN1 | 1 | 2.84 | 23 |
| XRN1 | 2 | 1.27 | 11.9 |
| XRN1 | 3 | -1.26 | -5.91 |
| PROM2 | 1 | 0.295 | 5.05 |
| PROM2 | 2 | -0.172 | 1.76 |
| PROM2 | 3 | 0.923 | 9.46 |
| HTR2C | 1 | -1.11 | -4.86 |
| HTR2C | 2 | -1.22 | -5.63 |
| HTR2C | 3 | 0.615 | 7.29 |
| TCF7 | 1 | 0.828 | 8.79 |
| TCF7 | 2 | -0.289 | 0.937 |
| TCF7 | 3 | -1.24 | -5.76 |
| FAM9A | 1 | 1.06 | 10.4 |
| FAM9A | 2 | 0.776 | 8.43 |
| FAM9A | 3 | 0.604 | 7.22 |
| REEP4 | 1 | 3.06 | 24.5 |
| REEP4 | 2 | -0.368 | 0.38 |
| REEP4 | 3 | 1.89 | 16.3 |
| LPCAT4 | 1 | 0.96 | 9.72 |
| LPCAT4 | 2 | 1.01 | 10.1 |
| LPCAT4 | 3 | -0.381 | 0.286 |
| NXT1 | 1 | 1.59 | 14.1 |
| NXT1 | 2 | -0.466 | -0.312 |
| NXT1 | 3 | 1.48 | 13.4 |
| RFX5 | 1 | -0.97 | -3.86 |
| RFX5 | 2 | 1.97 | 16.8 |
| RFX5 | 3 | -0.389 | 0.229 |
| CCDC74A | 1 | 0.22 | 4.52 |
| CCDC74A | 2 | 0.32 | 5.22 |
| CCDC74A | 3 | 1.62 | 14.4 |
| COX6A2 | 1 | -0.799 | -2.65 |
| COX6A2 | 2 | -1.23 | -5.66 |
| COX6A2 | 3 | 0.467 | 6.25 |
| OAZ1 | 1 | 4.87 | 37.2 |
| OAZ1 | 2 | -0.596 | -1.23 |
| OAZ1 | 3 | 4.1 | 31.8 |
| ADRB2 | 1 | -1.34 | -6.46 |
| ADRB2 | 2 | 1.15 | 11.1 |
| ADRB2 | 3 | 0.444 | 6.09 |
| AMZ2P1 | 1 | -0.242 | 1.27 |
| AMZ2P1 | 2 | -0.673 | -1.77 |
| AMZ2P1 | 3 | 0.232 | 4.6 |

Sorted by “G2 robust z-score” (low to high): some entries from above
| gene | siRNA no. | G2 robust z-score | G2 cells, % of GMNN control |
| --- | --- | --- | --- |
| NXT1 | 2 | -0.466 | -0.312 |
| NXT1 | 1 | 1.59 | 14.1 |
